No constants are given. Whether binding was seen depends on the method and setting. Some binding calls cover weakened binding; strength is not graded here.
Target: recombinant Fc fusion protein composed of the Sushi domain 1 and 2 of human CD46 (human) (UniProt P15529)
Test: phage and yeast display selection and FACS screening with recombinant CD46-Fc fusion

By UniProt entry, the sequences of proteins in these tests, tags left out. Residues count along the entry.
UniProt P15529, residues 35-159: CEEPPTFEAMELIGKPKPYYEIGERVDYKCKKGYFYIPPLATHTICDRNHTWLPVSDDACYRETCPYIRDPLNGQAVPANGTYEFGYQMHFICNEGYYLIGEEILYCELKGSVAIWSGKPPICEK

binding: binds
B1: YS5v1D (antibody, V domains shown)
VH: QVQLVQSGGGVVQPGRSLRLACAASGFTVNNYAMHWVRQAPGKGLEWVAVISYDGNNKYYADSVKGRFTISRDNSKNTLYLQMNSLRAEDTAVYYCAKGGGYFDLWGRGTLVTVSS
VL: QSVLTQPPSVSGAPGQRVTISCTGSSSNIGAGYDVHWYQQLPGTAPKLLIYGDNNRPSGVPDRFSGSKSGTSASLAITGLQAEDEADYYCSSYTSGTWLFGGGTKLTVL

Reference: patent US20170362330A1
